## Primary screen of a compound library

From ChEMBL document CHEMBL3988442, “University of Dundee, Small-Polar-MMV Screening Library” (2021).

Mtb glucose medium: 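Whole-cell growth test on Mycobacterium tuberculosis, read after 3 days in glucose-containing 7H9 medium; the read-out is not stated. Tested at 50 µM. Direction is inferred from retests: higher values go with more growth inhibition. Of about 69,000 compounds tested this way, about 760 (1.1%) reached 50% or more in at least one test.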
Mtb cholesterol medium: 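Phenotypic screen: M. tuberculosis growth, cholesterol and DPPC medium, 4 days; the read-out is not stated. Tested at 50 µM. Direction is inferred from retests: higher values go with more growth inhibition. Of about 69,000 compounds tested this way, about 370 (0.54%) reached 50% or more in at least one test.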

Each number is a percent effect as filed.
The controls that fix the scale are not given in the record; negative values are as filed.
Compounds were drawn at random from those tested, without regard to their results.
Two or more numbers in one place are separate tests of the same structure; such repeats can differ widely.

| Compound | Mtb glucose medium | Mtb cholesterol medium |
|---|---|---|
| `CCN1CCCC(C)(C(=O)NCc2nnnn2-c2ccccc2)C1` (stereo unspecified) | 13.45 | -1.364 |
| `CCN1CCN(CCNc2nc3ccc(C)cc3c(=O)n2C)CC1` | -21.26 | -9.82 |
| `CC(C)CNC(=O)CN(Cc1ccc(F)cc1)S(C)(=O)=O` | 17.33 | -3.809 |
| `[H][C@]12CC[C@@]3(N=C(C)N(CC(C)C)C3=O)[C@@]1([H])CN(C(=O)NC(C)C)C2` | -5.327 and 1.725 | 9.439 |
| `CCOC(=O)C1CCN(Cc2csc(-c3ccc(C)o3)n2)CC1` | 5.783 | -16.15 |
| `CC(NC(=O)Nc1nncs1)C(=O)NC1CCCC1` (stereo unspecified) | 23.72 | -1.216 |
| `CCC1(c2ccc(NS(=O)(=O)c3ccc(Cl)s3)cc2)CCC(=O)NC1=O` (stereo unspecified) | -0.1735 and 13.71 | 5.073 |
| `CCn1cnnc1CNC(=O)C1CCCN(Cc2cccc(F)c2)C1` (stereo unspecified) | -22.58 and -0.07463 | -16.1 |
| `CCC(C)NC(=O)Nc1cccc(OCCCC#N)c1` (stereo unspecified) | 17.45 | 4.091 |
| `Cc1cc(N2CCC(n3cc(CN4CCNCC4)nn3)CC2)ccn1` | 7.42 and -2.004 | -10.03 |
| `CCOc1ccc(NC(C)=O)cc1S(=O)(=O)Nc1cc(C)on1` | -27.57 and -0.05965 | -12.43 |
| `Cc1cc(C)n(C2CN(C(=O)Cn3c(C)cc(=O)c4ccccc43)C2)n1` | 18.36 | 1.79 |
| `CCCc1nc(C(C)(C)NC(=O)C2CC(=O)N(C3CC3)C2)no1` (stereo unspecified) | -29.02 and -4.762 | -11.79 |
| `COc1ccc(CN(C(=O)C2CCCOC2)c2ccncc2)cc1` (stereo unspecified) | 9.734 and 5.813 | 11.09 |
| `O=C(O)C(F)(F)F.O=C(O)C(F)(F)F.O=C(O)C(F)(F)F.c1ccc(CN2CCc3c(COCC4CC4)cncc3C2)nc1` | -41.44 | -9.783 and -7.357 |
| `O=S(=O)(C1CC1)N1CCC2(CC1)CC(Oc1ccccn1)CO2` (stereo unspecified) | -6.097 and 15.12 | -5.24 |
| `Cc1occc1C(=O)NCC(=O)N(C)CCCOc1ccccc1` | 11.4 and 14.41 | 8.777 |
| `CC(=O)N1CCC(c2n[nH]c3nccnc23)CC1` | -9.061 | 2.26 |
| `COc1cc(N2CCN(Cc3ccsc3)C(CCO)C2)nc(N)n1` (stereo unspecified) | -2.534 and 14.71 | 7.782 |
| `O=S(=O)(c1ccccc1)N1CCC2(CCCN2Cc2ccc(Cl)cc2)C1` (stereo unspecified) | -1.932 | -3.997 and 5.79 |
| `CS(=O)(=O)c1cccc(OCC(=O)N2CCCC2c2ccccc2Cl)c1` (stereo unspecified) | 5.515 | 16.07 |
| `Cc1nc(CN2CCc3ncnc(C4CC4)c3CC2)cs1.O=C(O)C(F)(F)F` | 12.65 | -13.17 |
| `CCN(CCNS(=O)(=O)C1CCOCC1)C(=O)OC(C)(C)C` | -19.74 | -18.89 |
| `CCn1cnnc1CNC(=O)N1CCC(CN2CCCCCC2)CC1` | -19.41 | -11.3 |
| `COc1cccc2c1OCC(NCc1cnn(-c3ccccc3)c1)C2` (stereo unspecified) | 32.31 | -4.81 |
| `COc1ccc(S(=O)(=O)N2CCC(Cn3ccnc3)CC2)cc1` | 34.63 and -31.47 | 2.529 |
| `CCc1onc(C)c1C(=O)N1CCC(c2cc3ncccc3cn2)CC1` | 14.39 | -8.498 |
| `Cc1ccc(CCNc2ncnc3sc4c(c23)CCNC4)o1` | -42.66 | -37.11 |
| `Cc1nn(C)cc1NC(=O)CC1CCN(CCc2ccccc2)CC1` | -12.81 | 2.933 |
| `O=C(Cc1cn2ccccc2n1)N1CCCC(n2ccnc2)C1` (stereo unspecified) | 12.84 | -0.7023 |
| `COc1cc(F)c(NCc2nc3ccccc3n2C)cc1OC` | -27.78 | -0.2784 |
| `CC(C)NC(=O)NCCCc1cccc(F)c1` | 25.44 | -10.83 |
| `O=C(NCCCn1ccccc1=O)c1cnc(-c2ccsc2)s1` | 7.923 | -8.681 and 1.167 |
| `[H][C@]12CC[C@]([H])(CN(S(C)(=O)=O)C1)N(Cc1csc(C(C)=O)c1)C2` | -1.672 | -8.559 and -2.231 |
| `COCCCC(=O)NS(=O)(=O)c1ccc2c(c1)OCCCO2` | -14.61 | -12.8 |
| `COc1ccc(Cc2ncc3c(n2)CN(C(=O)C2COCCO2)C3)cc1` (stereo unspecified) | 1.98 | 2.609 |
| `COc1nccnc1N1CCC2(CCCN(C(C)C)C2=O)C1` (stereo unspecified) | 7.816 | 1.114 |
| `O=C(NCCN1CCOCC1)c1ccn(COc2ccc(F)cc2)n1` | 34.17 | 18.01 |
| `COCC(=O)N1CCC(=O)N(C2CCCC2)Cc2cc(F)ccc21` | -0.6881 | -6.724 |
| `Cc1ccc(C(=O)N2CCN(Cc3ccc(C#N)cc3)CC2)n1C` | 7.405 | 8.425 |
| `Cc1nn(C)c(Cl)c1CNCc1cccnc1N1CCN(C)CC1.Cl` | 12.8 and 0.6514 | -11.23 |
| `O=C(NCCCn1ccnc1)c1csc2c1CCCC2` | -6.44 | -12.36 |
| `O=C(CCNC(=O)c1ccccc1N1CCOCC1)NC1CCCC1` | -1.218 | -7.099 |
| `Cc1nc(C(=O)N2CCOC(Cc3ccc(F)cc3)C2)co1` (stereo unspecified) | 13.46 | 7.259 |

Once more, the final 3:

* O=C(NCCCn1ccnc1)c1csc2c1CCCC2 : Mtb glucose medium: -6.44%; Mtb cholesterol medium: -12.36%
* O=C(CCNC(=O)c1ccccc1N1CCOCC1)NC1CCCC1 : Mtb glucose medium: -1.218%; Mtb cholesterol medium: -7.099%
* Cc1nc(C(=O)N2CCOC(Cc3ccc(F)cc3)C2)co1 (stereo unspecified) : Mtb glucose medium: 13.46%; Mtb cholesterol medium: 7.259%